# Measured values from PubChem BioAssay AID2634 (National Center for Advancing Translational Sciences (NCATS), 2010).
# The inconclusive results got no clear call from the source; some entries with a clear call stand among them for comparison. The source made the active and inactive calls.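 The calls were made as follows: active = compounds whose potency, the dose giving half inhibition, is below 20 µM; inconclusive = compounds meeting neither the active nor the inactive rule; inactive = potency over 20 µM or below 50% inhibition when unfitted.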
# Biological target: Integrin alpha-IIb (Homo sapiens) (UniProt P08514)
# Test: Platelet Adhesion Secondary Assay for Inhibitors of Platelet Integrin alphallb-beta3
# Conditions: human platelet adhesion to fibrinogen, calcein fluorescence; inhibition: at 30 µM, stronger effect = higher value
# Description: NIH Molecular Libraries Probe Production Network [MLPCN] NIH Chemical Genomics Center [NCGC] MLPCN Grant: 1 R03 MH083257-01 Assay Provider: Barry Coller, Rockefeller University NCGC Assay Overview: The alphaIIbbeta3 receptor plays a vital role in hemostasis and thrombosis, where receptor deficiency causes the hemorrhagic disorder, Glanzmann thrombasthenia, and uncontrolled receptor activation causes thrombosis and blood vessel occlusion. Small molecule inhibitors of alphaIIbbeta3, tirofiban and eptifibatide, have undesirable side effects thought to arise from conformational changes in alphaIIbbeta3. These changes transiently activate the receptor to cause spontaneous platelet aggregation and thrombus formation. […] This secondary assay measures the binding of human plates to fibrinogen, an extracellular matrix protein (Blue et al., 2008). Platelets were loaded with a fluorescent dye, calcein, and added to fibrinogen-coated plates. Following incubation, unbound platelets were removed by washing and bound platelets were detected by measuring fluorescence intensity. Inhibitors of alphaIIbbeta3 block platelet binding to fibrinogen and result in a decrease in fluorescence intensity.
# NCGC Assay Protocol Summary: Human fibrinogen (50 ug/mL) in Tris/saline (100 mM NaCl, 50 mM Tris/HCl, pH 7.4; American Diagnostica, Stamford, CT) was added to black, clear-bottom, untreated polystyrene, nonsterile 384-well microtiter plate wells (Corning no. 3711; Acton, MA) using a peristaltic microplate dispenser (WellMate; Matrix, Hudson, NH). After incubating at 22 C for 1 hour, plates were washed 4 times with Tris/saline using an automated plate washer (ELX405; Bio-Tek, Winooski, VT), and wells were then blocked with HBMT (138 mM NaCl, 12 mM NaHCO3, 10 mM HEPES, 2.7 mM KCl, 0.4 mM NaH2PO4, 0.1% glucose, 0.35% BSA, pH 7.4) for at least 1 hour. After 2 additional washes, 15 uL HBMT was allowed to remain in each well. Compounds were added to the wells with a liquid handling robot (MiniTrak V; PerkinElmer, Wellesley, MA) using a pin tool (VP Scientific, San Diego, CA) that added 0.1 uL compound in DMSO. Fifteen microliters 5E11/L calcein-labeled platelets were then added (2.5E11/L final concentration). After 1 hour of adhesion, wells were washed 4 times with HBMT-CaCl2/MgCl2 and the plates were read by an Envision (Perkin Elmer) to detect calcein fluorescence (490 nm excitation and 515 nm emission). Positive controls consisted of wells containing platelets without compounds. Negative controls were wells containing platelets and known inhibitors of alphaIIbbeta3, including mAbs 7E3 and 10E5, and EDTA. Reference Blue R, Murcia M, Karan C, Jirouskova M, and Coller BS. Application of high-throughput screening to identify a novel alphaIIb-specific small- molecule inhibitor of alphaIIbbeta3-mediated platelet interaction with fibrinogen. Blood. 2008, 111(3):1248-56
SMILES,inhibition,Potency
Nc1ccc(-c2cccc(-c3nn4c(=O)cc(N5CCNCC5)nc4s3)c2)cc1,inconclusive: 74%,–
O=c1cc(N2CCNCC2)nc2sc(Cc3ccccc3)nn12,inconclusive: 73%,–
O=C(O)c1ccc(-c2cccc(-c3nn4c(=O)cc(N5CCNCC5)nc4s3)c2)cc1,inconclusive: 87%,–
O=C(O)c1cc(-c2cccc(-c3nn4c(=O)cc(N5CCNCC5)nc4s3)c2)cs1,–,active: 2400 nM
CCc1nn2c(=O)cc(-c3ccncc3)nc2s1,inactive: 25%,–
Cc1noc(C)c1-c1cccc(-c2nn3c(=O)cc(N4CCNCC4)nc3s2)c1,inactive: 26%,–
O=c1cc(N2CCNCC2)nc2sc(-c3cccc(-c4ccncc4)c3)nn12,inconclusive: 54%,–
NCC(=O)Nc1cccc(-c2nn3c(=O)cc(N4CCNCC4)nc3s2)c1,–,active: 1100 nM
O=C(O)CNc1cccc(-c2nn3c(=O)cc(N4CCNCC4)nc3s2)c1,inconclusive: 68%,–
O=c1cc(N2CCNCC2)nc2sc(-c3cccc(-c4ccnc(F)c4)c3)nn12,inconclusive: 66%,–
O=C(Nc1cccc(-c2nn3c(=O)cc(N4CCNCC4)nc3s2)c1)c1ccncc1,inconclusive: 96%,–
O=c1cc(N2CCNCC2)nc2sc(-c3ccncc3)nn12,inconclusive: 95%,–
NCCC(=O)Nc1cccc(-c2nn3c(=O)cc(N4CCNCC4)nc3s2)c1,inconclusive: 73%,–
CCc1nn2c(=O)cc(N3C(C)CNCC3C)nc2s1 (stereo unspecified),inactive: 27%,–
O=C(Nc1cccc(-c2nn3c(=O)cc(N4CCNCC4)nc3s2)c1)C1CCNCC1,inconclusive: 64%,–
O=C(Nc1cccc(-c2nn3c(=O)cc(N4CCNCC4)nc3s2)c1)c1ccon1,inactive: 32%,–

# Two of the compounds above, bar-delimited:
SMILES | inhibition | Potency
O=C(O)c1cc(-c2cccc(-c3nn4c(=O)cc(N5CCNCC5)nc4s3)c2)cs1 | – | active: 2400 nM
NCC(=O)Nc1cccc(-c2nn3c(=O)cc(N4CCNCC4)nc3s2)c1 | – | active: 1100 nM
